Source: publication PMC1712231
No constants are given. Whether binding was seen depends on the method and setting. In cells and extracts the contact can be indirect. These calls come from enrichment with a bait or labelling near it, and not all partners need be listed. For some assays here: Where a sequence is shown, tags or fusion partners need not be part of it.

Chains of the proteins cited; added tags and fusions are not shown. Residues count along the entry.
UniProt P52630: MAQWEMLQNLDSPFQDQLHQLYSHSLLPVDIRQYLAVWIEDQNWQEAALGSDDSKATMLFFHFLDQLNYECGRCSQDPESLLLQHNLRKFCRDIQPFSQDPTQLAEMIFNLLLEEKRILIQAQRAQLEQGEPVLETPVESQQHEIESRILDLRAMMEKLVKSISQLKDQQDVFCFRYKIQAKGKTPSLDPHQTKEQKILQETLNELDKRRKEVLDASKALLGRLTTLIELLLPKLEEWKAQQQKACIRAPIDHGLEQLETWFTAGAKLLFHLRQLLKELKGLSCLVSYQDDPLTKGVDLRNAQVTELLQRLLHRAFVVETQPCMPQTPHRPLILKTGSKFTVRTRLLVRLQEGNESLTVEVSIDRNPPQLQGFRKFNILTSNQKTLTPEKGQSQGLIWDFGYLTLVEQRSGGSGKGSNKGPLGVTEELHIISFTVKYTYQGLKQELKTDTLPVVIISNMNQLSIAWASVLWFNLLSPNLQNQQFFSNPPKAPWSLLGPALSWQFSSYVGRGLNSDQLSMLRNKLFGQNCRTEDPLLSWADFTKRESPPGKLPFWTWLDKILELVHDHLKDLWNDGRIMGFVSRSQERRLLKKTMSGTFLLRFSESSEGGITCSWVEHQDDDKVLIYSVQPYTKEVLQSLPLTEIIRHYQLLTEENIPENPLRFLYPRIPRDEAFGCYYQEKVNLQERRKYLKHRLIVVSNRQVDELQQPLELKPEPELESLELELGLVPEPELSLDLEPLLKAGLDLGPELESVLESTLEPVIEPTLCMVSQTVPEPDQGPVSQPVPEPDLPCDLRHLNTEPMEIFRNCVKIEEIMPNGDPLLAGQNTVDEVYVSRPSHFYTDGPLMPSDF
UniProt Q9UKL4: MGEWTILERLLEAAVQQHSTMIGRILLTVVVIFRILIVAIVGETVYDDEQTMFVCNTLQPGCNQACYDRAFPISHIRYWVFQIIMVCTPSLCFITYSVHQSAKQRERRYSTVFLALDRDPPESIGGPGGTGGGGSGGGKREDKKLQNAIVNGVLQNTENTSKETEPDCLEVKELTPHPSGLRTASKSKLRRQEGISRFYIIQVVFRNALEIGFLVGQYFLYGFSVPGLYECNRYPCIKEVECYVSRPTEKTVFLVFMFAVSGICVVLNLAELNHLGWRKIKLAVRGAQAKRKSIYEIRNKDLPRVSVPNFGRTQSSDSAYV
UniProt Q13255, residues 19-1194: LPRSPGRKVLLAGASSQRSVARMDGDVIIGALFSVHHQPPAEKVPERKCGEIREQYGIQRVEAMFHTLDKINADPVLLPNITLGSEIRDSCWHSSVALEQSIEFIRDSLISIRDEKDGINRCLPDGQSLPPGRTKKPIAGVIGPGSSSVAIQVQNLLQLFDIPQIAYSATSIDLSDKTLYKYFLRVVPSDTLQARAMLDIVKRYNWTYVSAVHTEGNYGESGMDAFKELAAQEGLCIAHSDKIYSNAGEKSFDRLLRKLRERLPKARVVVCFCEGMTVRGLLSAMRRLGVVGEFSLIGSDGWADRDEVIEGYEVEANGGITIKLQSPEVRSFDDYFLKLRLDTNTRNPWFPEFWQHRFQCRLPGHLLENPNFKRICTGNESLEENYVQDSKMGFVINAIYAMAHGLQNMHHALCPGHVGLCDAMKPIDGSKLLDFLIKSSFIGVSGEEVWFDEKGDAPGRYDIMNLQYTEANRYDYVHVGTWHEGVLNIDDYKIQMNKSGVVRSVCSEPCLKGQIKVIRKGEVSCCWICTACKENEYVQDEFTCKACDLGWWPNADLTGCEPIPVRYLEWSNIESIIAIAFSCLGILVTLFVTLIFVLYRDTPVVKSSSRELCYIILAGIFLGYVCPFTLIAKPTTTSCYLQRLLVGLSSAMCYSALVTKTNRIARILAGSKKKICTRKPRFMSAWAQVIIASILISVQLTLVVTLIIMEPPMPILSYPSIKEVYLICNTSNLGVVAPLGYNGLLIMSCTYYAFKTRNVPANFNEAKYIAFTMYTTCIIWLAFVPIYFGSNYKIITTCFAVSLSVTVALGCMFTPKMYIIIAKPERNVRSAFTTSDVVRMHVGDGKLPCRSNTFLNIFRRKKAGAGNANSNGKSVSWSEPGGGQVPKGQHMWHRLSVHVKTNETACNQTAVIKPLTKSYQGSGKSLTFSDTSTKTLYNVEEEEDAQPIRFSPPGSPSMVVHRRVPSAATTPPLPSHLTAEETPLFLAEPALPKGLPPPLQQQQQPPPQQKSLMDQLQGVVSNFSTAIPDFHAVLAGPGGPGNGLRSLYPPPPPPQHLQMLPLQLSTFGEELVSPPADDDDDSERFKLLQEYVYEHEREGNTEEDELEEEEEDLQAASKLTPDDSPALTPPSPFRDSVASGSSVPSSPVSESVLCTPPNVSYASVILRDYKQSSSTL
UniProt P41594, residues 21-1212: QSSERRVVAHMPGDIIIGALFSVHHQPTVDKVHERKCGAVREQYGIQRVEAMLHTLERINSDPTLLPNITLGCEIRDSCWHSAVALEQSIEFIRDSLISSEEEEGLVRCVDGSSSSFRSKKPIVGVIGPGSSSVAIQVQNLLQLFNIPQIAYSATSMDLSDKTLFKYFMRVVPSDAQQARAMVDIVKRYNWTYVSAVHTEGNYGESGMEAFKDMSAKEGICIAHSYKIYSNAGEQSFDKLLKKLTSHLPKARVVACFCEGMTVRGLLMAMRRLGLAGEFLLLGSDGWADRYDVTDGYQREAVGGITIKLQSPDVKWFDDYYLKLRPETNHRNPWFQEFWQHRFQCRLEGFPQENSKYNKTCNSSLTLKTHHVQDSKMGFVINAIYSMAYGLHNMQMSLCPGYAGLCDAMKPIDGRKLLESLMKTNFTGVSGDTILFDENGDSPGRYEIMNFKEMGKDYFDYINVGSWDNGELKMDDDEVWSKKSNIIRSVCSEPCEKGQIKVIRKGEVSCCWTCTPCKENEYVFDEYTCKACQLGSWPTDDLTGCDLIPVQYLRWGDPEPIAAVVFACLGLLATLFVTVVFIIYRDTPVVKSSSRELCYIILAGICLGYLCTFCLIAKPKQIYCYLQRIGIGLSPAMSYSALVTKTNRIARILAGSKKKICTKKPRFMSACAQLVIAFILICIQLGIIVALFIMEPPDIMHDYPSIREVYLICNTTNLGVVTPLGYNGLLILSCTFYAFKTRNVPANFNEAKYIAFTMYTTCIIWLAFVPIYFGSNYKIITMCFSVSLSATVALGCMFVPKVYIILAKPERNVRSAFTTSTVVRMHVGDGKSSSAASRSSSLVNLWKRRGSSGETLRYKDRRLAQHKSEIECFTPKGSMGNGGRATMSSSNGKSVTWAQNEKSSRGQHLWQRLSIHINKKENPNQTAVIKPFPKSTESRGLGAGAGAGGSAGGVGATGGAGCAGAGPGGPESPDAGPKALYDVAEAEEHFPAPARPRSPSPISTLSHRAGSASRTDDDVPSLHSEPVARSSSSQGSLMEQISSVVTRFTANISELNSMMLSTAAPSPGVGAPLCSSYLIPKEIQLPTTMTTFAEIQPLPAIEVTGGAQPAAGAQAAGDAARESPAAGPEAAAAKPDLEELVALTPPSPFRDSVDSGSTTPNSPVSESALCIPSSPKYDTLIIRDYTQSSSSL
UniProt P43003: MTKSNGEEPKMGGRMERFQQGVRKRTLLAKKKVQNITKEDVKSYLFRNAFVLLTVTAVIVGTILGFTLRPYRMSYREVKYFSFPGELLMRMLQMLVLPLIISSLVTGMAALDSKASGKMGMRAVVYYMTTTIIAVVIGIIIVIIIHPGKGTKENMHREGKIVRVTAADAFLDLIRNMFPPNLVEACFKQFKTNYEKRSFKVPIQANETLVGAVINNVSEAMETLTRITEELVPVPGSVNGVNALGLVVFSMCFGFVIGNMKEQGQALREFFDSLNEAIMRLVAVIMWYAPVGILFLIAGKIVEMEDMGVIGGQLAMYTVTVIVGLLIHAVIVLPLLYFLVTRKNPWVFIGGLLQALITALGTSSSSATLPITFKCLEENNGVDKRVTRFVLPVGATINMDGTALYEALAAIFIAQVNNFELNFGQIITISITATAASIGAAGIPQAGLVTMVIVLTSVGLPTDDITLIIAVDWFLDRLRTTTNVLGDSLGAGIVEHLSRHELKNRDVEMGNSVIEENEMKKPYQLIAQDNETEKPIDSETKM
UniProt Q16659: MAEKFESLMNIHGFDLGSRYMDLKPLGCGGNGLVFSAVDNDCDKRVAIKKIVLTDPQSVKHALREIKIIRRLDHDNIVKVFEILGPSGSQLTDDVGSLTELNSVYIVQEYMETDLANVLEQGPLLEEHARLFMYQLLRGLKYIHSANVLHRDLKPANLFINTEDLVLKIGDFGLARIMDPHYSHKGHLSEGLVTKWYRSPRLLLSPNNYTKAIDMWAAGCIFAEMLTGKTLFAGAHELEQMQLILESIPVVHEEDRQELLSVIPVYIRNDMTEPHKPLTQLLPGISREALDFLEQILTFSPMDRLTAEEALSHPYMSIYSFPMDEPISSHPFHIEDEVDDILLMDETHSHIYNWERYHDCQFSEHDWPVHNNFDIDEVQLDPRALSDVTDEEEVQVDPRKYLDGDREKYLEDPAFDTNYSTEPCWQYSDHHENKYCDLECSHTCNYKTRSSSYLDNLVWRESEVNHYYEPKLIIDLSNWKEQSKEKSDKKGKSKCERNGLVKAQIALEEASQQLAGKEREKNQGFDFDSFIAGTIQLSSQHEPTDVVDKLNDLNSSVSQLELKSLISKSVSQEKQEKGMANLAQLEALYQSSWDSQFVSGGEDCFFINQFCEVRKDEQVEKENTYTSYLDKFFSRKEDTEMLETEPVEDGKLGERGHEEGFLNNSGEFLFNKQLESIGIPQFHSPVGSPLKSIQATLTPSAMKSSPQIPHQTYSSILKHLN
UniProt Q9Y3R0: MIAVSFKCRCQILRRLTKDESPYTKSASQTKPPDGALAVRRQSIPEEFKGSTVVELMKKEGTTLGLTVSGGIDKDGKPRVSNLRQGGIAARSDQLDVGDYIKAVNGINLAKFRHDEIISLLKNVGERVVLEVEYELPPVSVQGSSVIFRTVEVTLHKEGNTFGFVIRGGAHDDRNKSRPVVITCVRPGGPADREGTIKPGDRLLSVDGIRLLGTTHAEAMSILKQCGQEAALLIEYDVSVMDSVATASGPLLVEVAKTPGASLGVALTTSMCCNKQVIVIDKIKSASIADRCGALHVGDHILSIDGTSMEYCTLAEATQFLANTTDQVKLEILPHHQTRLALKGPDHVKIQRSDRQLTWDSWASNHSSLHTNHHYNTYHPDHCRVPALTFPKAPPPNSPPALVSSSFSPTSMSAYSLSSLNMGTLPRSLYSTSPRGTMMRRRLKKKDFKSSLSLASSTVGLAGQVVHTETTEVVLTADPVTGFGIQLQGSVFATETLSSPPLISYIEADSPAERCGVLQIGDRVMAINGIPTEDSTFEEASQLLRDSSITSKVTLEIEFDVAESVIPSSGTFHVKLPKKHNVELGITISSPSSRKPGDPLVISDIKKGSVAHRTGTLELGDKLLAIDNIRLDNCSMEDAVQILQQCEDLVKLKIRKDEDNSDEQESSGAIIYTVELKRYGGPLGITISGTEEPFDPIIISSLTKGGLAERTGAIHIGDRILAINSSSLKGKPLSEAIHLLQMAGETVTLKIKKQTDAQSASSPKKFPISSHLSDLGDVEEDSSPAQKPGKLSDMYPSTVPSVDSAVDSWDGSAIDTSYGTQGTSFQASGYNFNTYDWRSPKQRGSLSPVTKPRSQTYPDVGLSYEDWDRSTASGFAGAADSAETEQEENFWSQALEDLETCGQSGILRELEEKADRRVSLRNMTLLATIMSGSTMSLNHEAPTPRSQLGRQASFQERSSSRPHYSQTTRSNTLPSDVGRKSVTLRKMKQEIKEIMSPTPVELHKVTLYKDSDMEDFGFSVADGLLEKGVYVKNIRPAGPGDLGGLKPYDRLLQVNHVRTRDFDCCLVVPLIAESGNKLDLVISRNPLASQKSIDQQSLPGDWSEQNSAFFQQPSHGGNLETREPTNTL
UniProt P11142: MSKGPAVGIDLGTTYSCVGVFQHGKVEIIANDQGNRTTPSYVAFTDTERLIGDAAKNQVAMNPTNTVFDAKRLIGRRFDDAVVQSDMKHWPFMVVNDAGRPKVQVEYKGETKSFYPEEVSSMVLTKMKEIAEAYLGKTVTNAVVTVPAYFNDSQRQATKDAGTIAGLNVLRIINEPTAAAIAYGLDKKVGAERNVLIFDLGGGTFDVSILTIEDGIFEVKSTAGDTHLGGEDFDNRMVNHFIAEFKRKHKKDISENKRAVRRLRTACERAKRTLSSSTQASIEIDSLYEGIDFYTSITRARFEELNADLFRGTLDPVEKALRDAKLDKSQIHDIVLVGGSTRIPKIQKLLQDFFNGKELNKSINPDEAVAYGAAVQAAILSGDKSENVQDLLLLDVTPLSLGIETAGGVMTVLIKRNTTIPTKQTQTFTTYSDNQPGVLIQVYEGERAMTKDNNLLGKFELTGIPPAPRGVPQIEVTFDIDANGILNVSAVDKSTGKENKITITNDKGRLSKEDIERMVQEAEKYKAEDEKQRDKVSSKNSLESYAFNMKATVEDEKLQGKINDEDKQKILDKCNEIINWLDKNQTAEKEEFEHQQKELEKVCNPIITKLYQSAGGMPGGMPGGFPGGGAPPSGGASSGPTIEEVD

T1: PKC zeta (human (endogenous in T84)) (UniProt Q05513)
T1 sequence: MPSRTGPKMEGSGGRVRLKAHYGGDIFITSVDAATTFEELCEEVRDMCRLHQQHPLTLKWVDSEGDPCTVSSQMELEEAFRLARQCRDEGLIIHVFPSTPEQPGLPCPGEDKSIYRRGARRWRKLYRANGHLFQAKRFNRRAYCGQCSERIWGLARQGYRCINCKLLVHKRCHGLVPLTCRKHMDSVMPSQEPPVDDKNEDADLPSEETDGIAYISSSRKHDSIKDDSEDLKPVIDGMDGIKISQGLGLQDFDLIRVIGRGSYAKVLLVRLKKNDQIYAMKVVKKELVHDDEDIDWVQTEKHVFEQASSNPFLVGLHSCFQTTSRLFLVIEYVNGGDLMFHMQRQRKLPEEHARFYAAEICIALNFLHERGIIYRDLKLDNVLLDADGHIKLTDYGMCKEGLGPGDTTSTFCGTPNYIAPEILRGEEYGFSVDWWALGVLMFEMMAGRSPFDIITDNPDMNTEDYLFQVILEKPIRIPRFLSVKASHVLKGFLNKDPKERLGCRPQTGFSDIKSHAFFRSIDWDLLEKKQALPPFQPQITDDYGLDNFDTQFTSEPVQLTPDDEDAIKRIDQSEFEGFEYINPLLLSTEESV


Target: T1, PKC zeta (human (endogenous in T84))
Experiment: affinity purification with mass spectrometry; anti-PKC zeta immuno-isolate from T84 100,000 x g membranes in 2% CHAPS, peptide-eluted; bands of SDS-PAGE from three purifications, in-gel tryptic digestion, MALDI-TOF peptide mass fingerprint (MS-Fit on SwissProt), hits scored by the paper's own …

Molecule	binding
voltage-gated potassium channel Kv2.1 (protein, UniProt Q14721 1-858) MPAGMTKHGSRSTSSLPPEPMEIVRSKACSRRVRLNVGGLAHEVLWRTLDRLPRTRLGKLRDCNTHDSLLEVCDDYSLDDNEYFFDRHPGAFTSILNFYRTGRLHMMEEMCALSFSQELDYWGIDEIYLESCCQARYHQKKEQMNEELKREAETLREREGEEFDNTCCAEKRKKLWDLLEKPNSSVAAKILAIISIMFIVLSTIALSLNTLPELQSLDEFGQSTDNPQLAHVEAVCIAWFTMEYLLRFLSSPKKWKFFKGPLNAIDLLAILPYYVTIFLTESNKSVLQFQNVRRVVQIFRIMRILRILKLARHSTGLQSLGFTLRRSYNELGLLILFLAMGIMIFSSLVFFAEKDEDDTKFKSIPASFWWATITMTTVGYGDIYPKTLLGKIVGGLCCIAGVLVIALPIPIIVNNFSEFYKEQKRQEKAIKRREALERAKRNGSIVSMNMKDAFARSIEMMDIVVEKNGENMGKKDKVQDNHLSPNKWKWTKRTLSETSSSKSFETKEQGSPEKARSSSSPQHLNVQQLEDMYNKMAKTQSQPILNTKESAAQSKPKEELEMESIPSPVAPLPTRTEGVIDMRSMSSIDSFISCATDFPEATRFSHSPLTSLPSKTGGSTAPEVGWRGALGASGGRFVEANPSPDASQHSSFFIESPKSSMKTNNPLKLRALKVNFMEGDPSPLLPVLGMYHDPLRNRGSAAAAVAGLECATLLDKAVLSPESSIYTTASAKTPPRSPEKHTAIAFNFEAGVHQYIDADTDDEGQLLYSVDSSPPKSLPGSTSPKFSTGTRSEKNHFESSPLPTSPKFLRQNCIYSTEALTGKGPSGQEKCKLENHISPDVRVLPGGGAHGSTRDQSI	binds
rabaptin-5 (protein, UniProt Q15276 1-862) MAQPGPASQPDVSLQQRVAELEKINAEFLRAQQQLEQEFNQKRAKFKELYLAKEEDLKRQNAVLQAAQDDLGHLRTQLWEAQAEMENIKAIATVSENTKQEAIDEVKRQWREEVASLQAVMKETVRDYEHQFHLRLEQERTQWAQYRESAEREIADLRRRLSEGQEEENLENEMKKAQEDAEKLRSVVMPMEKEIAALKDKLTEAEDKIKELEASKVKELNHYLEAEKSCRTDLEMYVAVLNTQKSVLQEDAEKLRKELHEVCHLLEQERQQHNQLKHTWQKANDQFLESQRLLMRDMQRMEIVLTSEQLRQVEELKKKDQEDDEQQRLNKRKDHKKADVEEEIKIPVVCALTQEESSAQLSNEEEHLDSTRGSVHSLDAGLLLPSGDPFSKSDNDMFKDGLRRAQSTDSLGTSGSLQSKALGYNYKAKSAGNLDESDFGPLVGADSVSENFDTASLGSLQMPSGFMLTKDQERAIKAMTPEQEETASLLSSVTQGMESAYVSPSGYRLVSETEWNLLQKEVHNAGNKLGRRCDMCSNYEKQLQGIQIQEAETRDQVKKLQLMLRQANDQLEKTMKDKQELEDFIKQSSEDSSHQISALVLRAQASEILLEELQQGLSQAKRDVQEQMAVLMQSREQVSEELVRLQKDNDSLQGKHSLHVSLQQAEDFILPDTTEALRELVLKYREDIINVRTAADHVEEKLKAEILFLKEQIQAEQCLKENLEETLQLEIENCKEEIASISSLKAELERIKVEKGQLESTLREKSQQLESLQEIKISLEEQLKKETAAKATVEQLMFEEKNKAQRLQTELDVSEQVQRDFVKLSQTLQVQLERIRQADSLERIRAILNDTKLTDINQLPET	binds

Target: T1, PKC zeta (human (endogenous in T84))
Experiment: as above
Remark: another data set of the same source

binding	Molecule
binds	Homer (human (endogenous in T84))
binds	STAT2 (from UniProt P52630 1-851)
binds	connexin 36 (from UniProt Q9UKL4 1-321)
binds	metabotropic glutamate receptor 1 (from UniProt Q13255 19-1194)
binds	metabotropic glutamate receptor 5 (from UniProt P41594 21-1212)
binds	piccolo (from UniProt Q9Y6V0 1-5142)

Second part, the molecule before the results:

Molecule	binding
EAAT1 (from UniProt P43003 1-542)	binds
ERK3 (from UniProt Q16659 1-721) (enzyme)	binds
GRIP1 (from UniProt Q9Y3R0 1-1128)	binds
Hsc70 (from UniProt P11142 1-646)	binds
NMDA glutamate receptor zeta subunit (from UniProt Q05586 19-938)	binds
synaptotagmin VII (from UniProt O43581 1-403)	binds
